Measured values taken from article PMC6010621.
These are yes or no findings as the source states them, for the method shown. Binding can be weak; no strength is given. For some assays here: In cells and extracts the contact can be indirect.

Chains of the proteins cited; added tags and fusions are not shown. Lines headed by an entry give the natural chain unless they say otherwise; changes in a name come on top.
UniProt Q57XQ4: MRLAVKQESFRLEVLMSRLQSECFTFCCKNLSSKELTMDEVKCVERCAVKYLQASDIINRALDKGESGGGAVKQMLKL
UniProt Q57ZF1: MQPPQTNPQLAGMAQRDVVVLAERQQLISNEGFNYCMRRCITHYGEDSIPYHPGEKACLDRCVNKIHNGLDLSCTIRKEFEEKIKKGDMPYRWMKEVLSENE
UniProt Q586M2: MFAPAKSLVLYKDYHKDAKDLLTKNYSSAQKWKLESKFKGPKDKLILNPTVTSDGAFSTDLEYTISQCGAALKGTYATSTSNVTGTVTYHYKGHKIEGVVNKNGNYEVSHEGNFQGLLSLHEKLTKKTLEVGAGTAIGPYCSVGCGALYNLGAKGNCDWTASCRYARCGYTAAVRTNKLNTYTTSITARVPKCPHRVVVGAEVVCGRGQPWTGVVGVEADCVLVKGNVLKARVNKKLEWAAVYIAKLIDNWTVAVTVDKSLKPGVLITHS
UniProt Q382K7: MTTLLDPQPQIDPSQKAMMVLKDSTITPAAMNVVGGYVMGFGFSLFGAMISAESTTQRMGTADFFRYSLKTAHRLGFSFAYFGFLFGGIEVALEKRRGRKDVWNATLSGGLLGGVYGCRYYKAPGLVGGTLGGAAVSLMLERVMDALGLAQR
UniProt Q388C4: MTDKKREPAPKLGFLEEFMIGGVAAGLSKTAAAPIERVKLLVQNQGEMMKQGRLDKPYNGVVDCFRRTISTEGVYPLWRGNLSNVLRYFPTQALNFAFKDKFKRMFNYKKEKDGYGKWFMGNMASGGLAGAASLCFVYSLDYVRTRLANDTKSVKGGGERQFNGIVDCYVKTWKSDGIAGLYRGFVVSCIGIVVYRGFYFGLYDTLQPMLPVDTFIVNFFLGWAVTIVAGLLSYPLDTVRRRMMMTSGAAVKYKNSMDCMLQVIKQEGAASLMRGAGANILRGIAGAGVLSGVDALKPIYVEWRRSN

Assays:
[1] = target: TbTim9-Myc (Trypanosoma brucei) (UniProt Q57XQ4); test: co-IP; digitonin-solubilized (1%) mitochondrial extract, anti-myc agarose beads, 12 h at 4°C, 50 mM Tris pH 7.2, 50 mM NaCl, 10% glycerol; washes with 0.1% digitonin; bound proteins detected by immunoblot
[2] = target: TbTim10-Myc (Trypanosoma brucei) (UniProt Q57ZF1); test: as above
[3] = target: TbTim10 Gal4 fusion (TbTim10-AD / TbTim10-BD) (Trypanosoma brucei) (UniProt Q57ZF1); test: two-hybrid; Gal4 AD (pGADT7) and BD (pGBKT7) fusions cotransformed into S. cerevisiae Y2H Gold; growth on SD -leu/-trp/-his with 0 to 5.0 mM 3-amino-1,2,4-triazole, 30°C, 3 to 5 days

| binding [1] | binding [2] | binding [3] | Substance |
| --- | --- | --- | --- |
| no binding | – | – | voltage-dependent anion channel protein (VDAC) (from UniProt Q586M2) |
| binds | binds | – | T. brucei Tim17 (TbTim17) (from UniProt Q382K7) |
| – | – | binds weakly | TbTim9 Gal4 fusion (TbTim9-AD / TbTim9-BD) (from UniProt Q57XQ4) |
| no binding | – | – | T. brucei ADP/ATP carrier (TbAAC) (from UniProt Q388C4) |
